Test results from PubChem BioAssay AID1347423 (Functional Genomics Laboratory (NCATS/FGL), 2020).
Out of some 52,000 sequences screened, about 210 (0.4%) were called active.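 Rule for the calls: active = gene whose silencing raises cell survival under the drug, median off-target-corrected z-score across its silencing RNAs 2 or more; inactive = the rest.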 The list shows a part of the results.

experiment: Resistance to Poly (ADP-Ribose) Polymerase inhibitor: Gene Identification via Genome-wide siRNA Screen; details: mouse BRCA2 R2336H ES cells, olaparib, CellTiter-Glo viability; active compounds read high
Summary of the method: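 Mouse BRCA2 R2336H ES cells were reverse-transfected with siRNA (20 nM final), treated at 48 h with 500 nM olaparib, and read by CellTiter-Glo after 72 h. Scores: MAD-based z per siRNA, median per gene, seed off-target correction.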

Sequence	z-score
GGAGAAUUGUUUUUACCAGTT against Bbox1	inactive: -0.346
GGAAAAGGAACUUUAUCUATT against Aprin	inactive: -0.44
GGCAAGGUGCUGAUUCCCUTT against Itga9	inactive: 2.56
GCUGACUAAGGCUUGUAAUTT against S100a18	inactive: -0.608
GGACUAUGUAGUGAAACAUTT against Cai	inactive: -0.951
GCUCAUUCCGUUUAUUAUUTT against 1600020H07Rik	inactive: -0.3
CGAGUUGUAUAGCAGCUCCTT against Dok2	inactive: -0.491
GGUGGAUGUCUCAGCAUAATT against Pafah1b2	inactive: -1.05
GGAAAUUUUUCCCAGCUGGTT against Prlpc3	inactive: -0.552
GCGUGCUGUGUAAGAGUGUTT against Gja4	inactive: -0.867
GGAUUCUCUUCCAUCUUACTT against Olfr266	inactive: -0.426
GGAGUAUUCAACAUUUGUATT against Trim11	inactive: 0.605
CUCUAGCUACUAUUUUCUCTT against Olfr824	inactive: -0.473
GGAUCGAAUGUACCAACGGTT against Rnase4	inactive: 1.94
CCCACCUUAUGGGACAAAATT against Hlf	inactive: -0.693
CGACAUGGAGAGAUGCACATT against Galnt14	inactive: 0.481
CGCAUACAUCAGUGUGGCATT against A730085E03Rik	inactive: 1.07
CCCUCAAGGCUGAUAAACATT against Il17b	inactive: -0.848
GGGCUACUAUUCAUUGAUCTT against 4930550L24Rik	inactive: 0.273
CCUCUACACUUUAGAUGGUTT against Gnb2-rs1	inactive: -0.429
CCUCCUACUGUUUAAUGUUTT against 4930539P14Rik	inactive: -1.12
GGAUAAGCAUGAUGACAGUTT against Wbp11	inactive: -2.26
CCUUAUUACACACACCCUGTT against Gja3	inactive: 0.967
GGGAGCUAAUGAGCAAGGATT against Galk1	inactive: -0.061
GGAUCAGAUUCUGAAGAGATT against Vcl	inactive: 0.267
GCAAAAGUAUCUACUGGCGTT against Clec2	inactive: 0.262
GGAUGAUAUGCUGUUAGUGTT against Il17rc	inactive: -0.666

Sequence	z-score
GGGUAUUCCUUCCAACACCTT against Lrrc4	inactive: 0.779
GCUGGCGGAGCAAACUCAATT against Foxd3	inactive: -1.65
GGGAAUUUAUAGCUUCAGCTT against Cbln2	inactive: 1.32
GGCUCAAGAAAUUCUGGACTT against Noxo1	inactive: 0.472
GCUGUGCAAGGUGAGGAAATT against 1110033J19Rik	inactive: -0.613
GGGACAUUCAUAUGUCUAUTT against C330014B19Rik	inactive: 0.455
GCCUUAGGAUGCAUCUUGUTT against Smarcad1	inactive: 1.4
GGAGCACUUAGAAAUGUCCTT against Olfr342	inactive: 0.0319
GGACCCUUAUGACCCUCAUTT against Irf3	inactive: 1.96
GGACUAUCAUCUGAUGCCATT against AW545966	inactive: 0.851
GGGAAAGACUCAAGGUCCUTT against Olfr586	inactive: 0.976
GGAUUUAUUUGCCAACACUTT against 4732495G21Rik	inactive: -0.0888
UUUAUACCAAUGCUGUACGTT against LOC384639	inactive: -0.344
GGUCAAGUUCGCCAUUAAATT against 2310022A10Rik	inactive: 0.252
GGAUGUUGUAGCAGCUGCGTT against Olfr353	inactive: -0.284
GGGAAUGUAGACAUGGAAUTT against Tas1r3	inactive: 0.84
GGAGAGAGUUGUUCAGUUATT against Olfr619	inactive: -0.775
GGAUAGACUUGAUUCUUGGTT against Emid1	inactive: -0.665
GGGAAAGGGUUUUUUAUUCTT against Slc1a1	inactive: -0.097
GGGAGAGCUGGCUAAAUGATT against Spnb4	inactive: -2.14
CGAGCAAGCUUCUACAUACTT against AI182371	inactive: -2.79
GGUAAUUGAGUUUGACGAUTT against Ptprf	inactive: 0.649
GGAUGUUGUAGAUGCUUUGTT against Cte1	inactive: 2.78
CCUCUAGACCGAAUGAAAATT against Zfyve16	inactive: 0.664
GCUUCGCUUUUAGGUAUAUTT against Rpl27	inactive: -2.73
GGCCCUCACAAUGAAUAUGTT against Efs	inactive: -0.583
GGGCAGGAAAAAAAAUUCATT against C330002D13Rik	inactive: -0.0763

Part of the list above, reformatted.

| Sequence | z-score |
| --- | --- |
| GGGAGCUAAUGAGCAAGGATT against Galk1 | inactive: -0.061 |
| GGAUGUUGUAGCAGCUGCGTT against Olfr353 | inactive: -0.284 |

Remaining list, next part.

Sequence	z-score
GGGUGUCGUUCUGGUUUGUTT against Tmem27	inactive: -1.45
GGUGAAGUCUCCAAAGAGUTT against Ms4a4d	inactive: 0.403
GCCUCUCUGGUGAACUUAGTT against Ccar1	inactive: 0.393
GGAAACAGCCCACUGGAAATT against Ndufs2	inactive: 0.581
GGCACUUACUGUGAAAUUGTT against Smbp	inactive: -1.37
GCGAGAAGGAUUCACCUUCTT against Apg7l	inactive: 1.12
GGCUUCUUCACUGAAAUUCTT against 1700074P13Rik	inactive: 0.277
GGACAUUUUUCAUUUGUGATT against Zfhx4	inactive: 0.499
GGAUUCUGAAAUCAGUGCUTT against Capn8	inactive: 0.244
GGAAACCUGUGUAUGAUUGTT against Olfr1022	inactive: -0.373
GCCCGAAUUUGAUAAACAGTT against BC049816	inactive: 2.41
GGAAGAAUCAAAAACCUUCTT against Ddit3	inactive: 0.75
GGACGUAACAAAAUGUUCUTT against P2ry12	inactive: -0.253
GGGACUUGAGUAGCUGACUTT against Sgta	inactive: 0.0123
GGAGAAGAGCAUGCCUUUCTT against Lgals6	inactive: -0.647
CGGUAUUAGUAGCAAUGGUTT against 2310005G13Rik	inactive: -0.34
CCGUAAGAAGGAAAACGCATT against Kcnd1	inactive: 1
CCUUCUGGUGCUUUUAGAGTT against Tlm	inactive: 0.431
GGAGCUUCUUUUCCCUCUATT against Gcgr	inactive: -0.142
GGCGAUAACUGUCGAUACUTT against Mkrn1	inactive: 0.107
GGAAUCAACUUGGUGGCUCTT against Rxrg	inactive: 0.659
GGACAGUGCUCGAAACCGATT against BC004728	inactive: 3.8
CCUUUUUCGGCUUGUAUAATT against Tnfsf6	inactive: -0.769
GGAGCUCGUGUAAAUGCCATT against A130096K20	inactive: 0.659
GCACAAGACUUUAUAACCATT against 1810012H11Rik	inactive: -1.41
GGCUAAAGAACAUGAUACCTT against Sema4a	inactive: 0.793
CGGUUCAUCUGGGAGUAUGTT against Rerg	inactive: -1.67

Sequence	z-score
GGGUUUUGAAACAUGCAGGTT against Cd44	inactive: 0.793
CCGGAAGAGCUUGCUUUAUTT against MGC59240	inactive: -1.39
CGACAAGGAAAGUUGAUGUTT against Hdac3	inactive: 1.33
GCAGUUGCUAUGUUCUAUATT against Olfr1257	inactive: 2.13
GCGAGCUGUAAAUGGAUCUTT against Gpr30	inactive: -0.641
GGAUGACAAAAAUUUCAAGTT against St14	inactive: 0.5
GCAACACGAAUAUCACAGGTT against Hadha	inactive: 0.719
GCACCGAAUGCACAAUCUCTT against D4Ertd196e	inactive: 0.962
GCAAGGGCAAGUCCACAAATT against Gjb3	inactive: -1.07
CCCACUUGCUGAAAAUUGUTT against Ankib1	inactive: -0.289
GGAUUGCUCAGUAUUCUACTT against V1rb2	inactive: -0.606
GCUAUACACUUGGCCCAUUTT against 6330577E15Rik	inactive: 0.201
GGAUUUAAGUGCCCGGUAUTT against D6Ertd365e	inactive: 0.776
GGAUGAUGAGUUUUUCCAUTT against 9030407H20Rik	inactive: 0.0546
GCAACACAAGUCAUGAAGUTT against Gabpb2	inactive: 0.0422
CCUCUUAAACAUGUCCUAGTT against Atp6v0a2	inactive: 0.805
GCCAACAAUUUGAAGAACGTT against Spats1	inactive: -0.382
GCUUUACGCAUCCUACGUGTT against Ftmt	inactive: 1.08
GCGGAAAGGCCAAACGAUUTT against Inhbb	inactive: -0.766
GGAAAGAUUCAAAGAACCUTT against Rpia	inactive: -1.71
GGGUCAAACGACUUAGAAATT against Col5a2	inactive: 0.783
CCUUCUGUAUAGGUUCUGGTT against Slc41a3	inactive: 1.17
AUGGAAAAAGUGCACAAUCTT against Olfr1061	inactive: 0.0751
GGACAAUGAGCUCUCCUUCTT against Abi3	inactive: 0.0643

Reprinted at random: 2 entries already listed.
Sequence	z-score
GCUAUACACUUGGCCCAUUTT against 6330577E15Rik	inactive: 0.201
GCAAGGGCAAGUCCACAAATT against Gjb3	inactive: -1.07
